Reference: paper PMC4868535, “A G-protein activation cascade from Arl13B to Arl3 and implications for ciliary targeting of lipidated proteins” (eLife, 2015)
Results are given in words; binding and its absence hold for the method and conditions named. For part of these data: A result given as binding can be weak or reduced; the word gives no strength.

Key:
[1] = molecular target: CrArl3 (Chlamydomonas reinhardtii); experiment: crystal structure; CrArl13B·GppNHp and CrArl3·GDP mixed 1.2:1 with alkaline phosphatase; sitting drop, 0.1M Tris pH 8.5, 25% PEG 6000; GppNHp in both active sites; both purified
[2] = molecular target: GST-CrArl3 (Chlamydomonas reinhardtii); experiment: pull-down; 50 µg GST-CrArl3 (loaded with GDP or GppNHp) on 50 µl glutathione agarose; 1 mg/ml (~37 µM) CrArl13B 18-278 loaded with GppNHp, 30 min, buffer M (25 mM Tris pH 7.5, 100 mM NaCl, 5 mM MgCl2, 3 mM β-mercaptoethanol, 1% glycerole); SDS-PAGE; both purified
[3] = molecular target: GST-CrArl3 (Chlamydomonas reinhardtii); experiment: condition: only CrArl13B loaded with GDP (1 mg/ml, ~37 µM); pull-down; 50 µg GST-CrArl3 on 50 µl glutathione agarose; 1 mg/ml (~37 µM) CrArl13B 18-278 loaded with GDP, 30 min, buffer M; SDS-PAGE; both purified

binding [1]: binds
binding [2]: binds weakly
binding [3]: no binding
B1: CrArl13B^18-–278 (domain or fragment, UniProt A8INQ0 18-278)
chain: RKITIALLGLDNAGKTTLLNSIQGEVDRDTTPTFGFNSTTLNEGKYKIEVFDLGGGKNIRGVWKKYLAEVHAIVYVVDAADPGRFEESKMTMAEVLENQFMRDKPICIFANKQDLPTAAPAAEVVKGLGLATCRNSHNVFPCTAKMPAGQDVDHRLRDGLKWLVGTVDREFGRLDPRVQTEAEEVRQEEARKKKEREERLRKQREERLRQQKEEEERAREVEKENELHDGKAPSLLAAGGGVVGAAAAGVNGVMVDEQQEL
